{
  "source": "PubChem BioAssay AID2685",
  "about": "(National Center for Advancing Translational Sciences (NCATS), 2010)",
  "experiment": "qHTS Assay for Lipid Storage Modulators in Drosophila S3 Cells;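 on cell number change: cells counted by Cell Tracker Red CMTPX staining in the red channel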",
  "settings": "BODIPY lipid droplet fluorescence, 18-24 h; for cell number change: measured here: cell count max response, cells fed with added oleic acid",
  "outline": "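Laser-scanning cytometry quantifies lipid droplet accumulation (500–530 nm total intensity; droplet/cell object ratio) in oleic acid-fed (400 uM added) Drosophila S3 cells treated with a concentration series. 20 uM Triacsin C defined 100% inhibition.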",
  "key": {"[1]": {"settings": "measured here: lipid fluorescence (Fed channel) AC50, cells fed with added oleic acid"}, "[2]": {"settings": "measured here: cell number channel AC50, cells fed with added oleic acid"}},
  "note": "The list shows a part of the results. Shown are side measurements of this screen, not its main read-out; they come without a call. The list favours compounds with an active or inconclusive main result. Potencies come from curve fits of mixed quality, noted in brackets.",
  "data": [
    {"smiles": "COc1ccc(C(=O)C2CCCN(C(=O)c3cc(C)nc(C)n3)C2)cc1OC", "note": "(stereo not given)", "values": [
      {"measurement": "cell number change", "result": 0.408, "unit": "%"},
      {"measurement": "AC50", "setting": "[1]", "result": "16.4 µM [rising, single point]"}
    ]},
    {"smiles": "COc1ccc(-c2cc(C(=O)N3CCN(c4ncccn4)CC3)c3ccccc3n2)cc1OC", "values": [
      {"measurement": "cell number change", "result": -20.8, "unit": "%"}
    ]},
    {"smiles": "CC(Sc1nnc(Cc2cccs2)n1C1CCCCC1)C(=O)N1CCc2ccccc21", "note": "(stereo not given)", "values": [
      {"measurement": "AC50", "setting": "[2]", "result": "1.46 µM [rising, partial curve]"}
    ]},
    {"smiles": "O=C(NCc1cccnc1)c1cc2nc(-c3ccc4c(c3)OCO4)cc(C(F)(F)F)n2n1", "values": [
      {"measurement": "cell number change", "result": 22.3, "unit": "%"},
      {"measurement": "AC50", "setting": "[1]", "result": "0.00461 µM [rising, full curve, poor fit]"}
    ]},
    {"smiles": "Nn1c(COc2cccc(Br)c2)nnc1SCC(=O)NCC1CCCO1", "note": "(stereo not given)", "values": [
      {"measurement": "cell number change", "result": -3.63, "unit": "%"},
      {"measurement": "AC50", "setting": "[1]", "result": "6.51 µM [rising, single point]"}
    ]},
    {"smiles": "CCC1C(=O)N=C(SCC(=O)Nc2ccc(S(N)(=O)=O)cc2)NC1=O", "note": "(stereo not given)", "values": [
      {"measurement": "AC50", "setting": "[1]", "result": "0.103 µM [falling, full curve, poor fit]"}
    ]},
    {"smiles": "O=C(Nc1cc(=O)[nH]c2ncnn12)c1ccco1", "values": [
      {"measurement": "cell number change", "result": -1.81, "unit": "%"},
      {"measurement": "AC50", "setting": "[1]", "result": "1.64 µM [falling, partial curve, poor fit]"}
    ]},
    {"smiles": "NC(=O)c1ccsc1NC(=O)COC(=O)Cc1cccc2ccccc12", "values": [
      {"measurement": "cell number change", "result": -4.69, "unit": "%"},
      {"measurement": "AC50", "setting": "[2]", "result": "0.411 µM [rising, full curve, poor fit]"},
      {"measurement": "AC50", "setting": "[1]", "result": "10.3 µM [falling, partial curve]"}
    ]},
    {"smiles": "CC(C)CNS(=O)(=O)c1cc(C(=O)OCC(=O)N2CCOCC2)c(Cl)cc1Cl", "values": [
      {"measurement": "cell number change", "result": 3.15, "unit": "%"},
      {"measurement": "AC50", "setting": "[1]", "result": "0.82 µM [rising, full curve]"}
    ]},
    {"smiles": "O=C(Cn1nnc(-c2ccc(Cl)cc2)n1)NCCC1=CCCCC1", "values": [
      {"measurement": "cell number change", "result": -0.825, "unit": "%"},
      {"measurement": "AC50", "setting": "[1]", "result": "0.146 µM [rising, single point]"}
    ]},
    {"smiles": "Cc1ccc(S(=O)(=O)NCc2ccccc2)cc1C(=O)N(C)Cc1ccccc1F", "values": [
      {"measurement": "cell number change", "result": -23.7, "unit": "%"},
      {"measurement": "AC50", "setting": "[1]", "result": "20.6 µM [falling, partial curve]"}
    ]},
    {"smiles": "O=C(CS(=O)(=O)c1ccccc1)N(CCCN1CCOCC1)c1nc2c(F)cccc2s1", "values": [
      {"measurement": "cell number change", "result": 13.3, "unit": "%"}
    ]},
    {"smiles": "Cc1[nH]c2ccccc2c1CN1CCN(c2ccccn2)CC1", "values": [
      {"measurement": "cell number change", "result": 20.5, "unit": "%"},
      {"measurement": "AC50", "setting": "[2]", "result": "0.00517 µM [rising, full curve, poor fit]"}
    ]},
    {"smiles": "CC(C)NC(=O)COC(=O)C1CSC2(c3ccc(Br)cc3)CCC(=O)N12", "note": "(stereo not given)", "values": [
      {"measurement": "cell number change", "result": -35.3, "unit": "%"},
      {"measurement": "AC50", "setting": "[2]", "result": "0.00461 µM [falling, full curve, poor fit]"},
      {"measurement": "AC50", "setting": "[1]", "result": "0.00461 µM [falling, full curve, poor fit]"}
    ]},
    {"smiles": "Cc1cccc(NC(=O)CN2CCSc3ccccc32)c1", "values": [
      {"measurement": "cell number change", "result": -16.8, "unit": "%"},
      {"measurement": "AC50", "setting": "[2]", "result": "0.82 µM [falling, single point]"},
      {"measurement": "AC50", "setting": "[1]", "result": "6.51 µM [rising, partial curve, poor fit]"}
    ]},
    {"smiles": "COc1cc(NC(=S)NN2CCN(C)CC2)cc(OC)c1", "values": [
      {"measurement": "cell number change", "result": -43.3, "unit": "%"},
      {"measurement": "AC50", "setting": "[2]", "result": "3.66 µM [falling, full curve]"},
      {"measurement": "AC50", "setting": "[1]", "result": "3.66 µM [falling, full curve]"}
    ]},
    {"smiles": "Cc1cccc(C)c1OCCNC(=O)c1ccc2ccccc2n1", "values": [
      {"measurement": "cell number change", "result": -46.5, "unit": "%"},
      {"measurement": "AC50", "setting": "[2]", "result": "0.231 µM [falling, full curve]"}
    ]},
    {"smiles": "Cc1cccc(NCN2C(=O)C3C4C=CC(C4)C3C2=O)c1", "note": "(stereo not given)", "values": [
      {"measurement": "cell number change", "result": 16, "unit": "%"},
      {"measurement": "AC50", "setting": "[1]", "result": "0.13 µM [falling, full curve, poor fit]"}
    ]},
    {"smiles": "COc1ccc(Cl)cc1-c1nc(-c2ccc(NC(=O)c3cccs3)cc2)no1", "values": [
      {"measurement": "cell number change", "result": -19.3, "unit": "%"},
      {"measurement": "AC50", "setting": "[2]", "result": "0.58 µM [falling, full curve, poor fit]"},
      {"measurement": "AC50", "setting": "[1]", "result": "23.1 µM [falling, single point]"}
    ]},
    {"smiles": "COCCn1c(SCC(N)=O)nnc1-c1c[nH]c2ccccc12", "values": [
      {"measurement": "cell number change", "result": -10.6, "unit": "%"},
      {"measurement": "AC50", "setting": "[1]", "result": "16.4 µM [rising, single point]"}
    ]},
    {"smiles": "CC(C)CC(=O)N/C(N)=N/c1nc2ccccc2o1", "values": [
      {"measurement": "cell number change", "result": 6.25, "unit": "%"},
      {"measurement": "AC50", "setting": "[1]", "result": "0.82 µM [rising, full curve, poor fit]"}
    ]},
    {"smiles": "C/C(CC(=O)Nc1ccc(Cl)cc1C(F)(F)F)=N\\NC(=O)c1ccccn1", "values": [
      {"measurement": "cell number change", "result": 30.2, "unit": "%"},
      {"measurement": "AC50", "setting": "[2]", "result": "0.00461 µM [rising, full curve, poor fit]"},
      {"measurement": "AC50", "setting": "[1]", "result": "29.1 µM [falling, single point]"}
    ]},
    {"smiles": "Cc1sc2ncnc(NCCCn3ccnc3)c2c1C", "values": [
      {"measurement": "cell number change", "result": -18.6, "unit": "%"}
    ]},
    {"smiles": "COc1ccc(/C=C(\\NC(=O)c2ccco2)C(=O)N2CCCCC2)cc1", "values": [
      {"measurement": "cell number change", "result": 20.2, "unit": "%"},
      {"measurement": "AC50", "setting": "[1]", "result": "6.51 µM [rising, single point]"}
    ]},
    {"smiles": "CCN(CC)CCN1C(=O)C(O)=C(C(=O)c2cc3cccc(OC)c3o2)C1c1ccc(F)cc1", "note": "(stereo not given)", "values": [
      {"measurement": "cell number change", "result": -44.8, "unit": "%"},
      {"measurement": "AC50", "setting": "[2]", "result": "18.4 µM [falling, single point]"},
      {"measurement": "AC50", "setting": "[1]", "result": "29.1 µM [falling, single point]"}
    ]},
    {"smiles": "C=CCn1c(C)cc(C(=O)CN2C(=O)c3ccccc3C2=O)c1C", "values": [
      {"measurement": "cell number change", "result": 74.1, "unit": "%"}
    ]},
    {"smiles": "COc1ccccc1CNC(=O)COC(=O)C12CC3CC(CC(O)(C3)C1)C2", "values": [
      {"measurement": "cell number change", "result": -46.3, "unit": "%"},
      {"measurement": "AC50", "setting": "[2]", "result": "0.82 µM [falling, partial curve]"},
      {"measurement": "AC50", "setting": "[1]", "result": "0.58 µM [falling, full curve, poor fit]"}
    ]},
    {"smiles": "COc1cc(/C=C/C(=O)OCC(=O)N2CCCC2)ccc1OCC#N", "values": [
      {"measurement": "cell number change", "result": -8.77, "unit": "%"},
      {"measurement": "AC50", "setting": "[2]", "result": "4.11 µM [rising, single point]"},
      {"measurement": "AC50", "setting": "[1]", "result": "6.51 µM [falling, single point]"}
    ]},
    {"smiles": "CNc1nc(OC)nc(N2CCOCC2)n1", "values": [
      {"measurement": "cell number change", "result": -8.67, "unit": "%"},
      {"measurement": "AC50", "setting": "[1]", "result": "0.82 µM [falling, full curve, poor fit]"}
    ]},
    {"smiles": "COc1ccc(Cc2cnc(N)s2)cc1", "values": [
      {"measurement": "cell number change", "result": 2.39, "unit": "%"}
    ]},
    {"smiles": "CCOc1ccc(C(=O)NC2CCN(C(=O)Nc3ccc(F)cc3)CC2)cc1", "values": [
      {"measurement": "cell number change", "result": 41.2, "unit": "%"},
      {"measurement": "AC50", "setting": "[2]", "result": "4.11 µM [rising, partial curve, poor fit]"}
    ]},
    {"smiles": "Cc1cccc(C)c1NC(=O)CNC(=O)CNC(=O)c1ccc2c(c1)OCO2", "values": [
      {"measurement": "AC50", "setting": "[2]", "result": "0.146 µM [rising, partial curve, poor fit]"},
      {"measurement": "AC50", "setting": "[1]", "result": "0.103 µM [rising, full curve]"}
    ]},
    {"smiles": "CC(C(=O)N1CCc2ccccc21)N1CCN(c2cccc(C(F)(F)F)c2)CC1", "note": "(stereo not given)", "values": [
      {"measurement": "cell number change", "result": 70.5, "unit": "%"},
      {"measurement": "AC50", "setting": "[2]", "result": "10.3 µM [rising, partial curve]"},
      {"measurement": "AC50", "setting": "[1]", "result": "14.6 µM [rising, partial curve]"}
    ]},
    {"smiles": "O=C(NCc1ccc2c(c1)OCO2)C1CC(c2ccc(Cl)cc2)=NO1", "note": "(stereo not given)", "values": [
      {"measurement": "cell number change", "result": -21.7, "unit": "%"}
    ]},
    {"smiles": "CC(C)(C)OC(=O)CNC(=O)c1nc[nH]c1C(=O)N1CCNCC1", "values": [
      {"measurement": "cell number change", "result": 24.8, "unit": "%"},
      {"measurement": "AC50", "setting": "[1]", "result": "3.66 µM [rising, full curve]"}
    ]},
    {"smiles": "O=C(CN1CCCc2ccccc21)NCc1ccc2c(c1)OCO2", "values": [
      {"measurement": "cell number change", "result": -6.14, "unit": "%"},
      {"measurement": "AC50", "setting": "[2]", "result": "6.51 µM [rising, single point]"},
      {"measurement": "AC50", "setting": "[1]", "result": "16.4 µM [rising, single point]"}
    ]}
  ]
}
